Measurements taken from article PMC9117333.
Like-named read-outs stand apart in the source and are kept apart here. Results are given in words; binding and its absence hold for the method and conditions named. Binding seen in cells or lysates may run through a third protein. Some entries that bind do so weakly or less than the wild type. Where a sequence is shown, tags or fusion partners need not be part of it.

Amino acid sequences for entries named in this document (tags omitted).
UniProt Q60598: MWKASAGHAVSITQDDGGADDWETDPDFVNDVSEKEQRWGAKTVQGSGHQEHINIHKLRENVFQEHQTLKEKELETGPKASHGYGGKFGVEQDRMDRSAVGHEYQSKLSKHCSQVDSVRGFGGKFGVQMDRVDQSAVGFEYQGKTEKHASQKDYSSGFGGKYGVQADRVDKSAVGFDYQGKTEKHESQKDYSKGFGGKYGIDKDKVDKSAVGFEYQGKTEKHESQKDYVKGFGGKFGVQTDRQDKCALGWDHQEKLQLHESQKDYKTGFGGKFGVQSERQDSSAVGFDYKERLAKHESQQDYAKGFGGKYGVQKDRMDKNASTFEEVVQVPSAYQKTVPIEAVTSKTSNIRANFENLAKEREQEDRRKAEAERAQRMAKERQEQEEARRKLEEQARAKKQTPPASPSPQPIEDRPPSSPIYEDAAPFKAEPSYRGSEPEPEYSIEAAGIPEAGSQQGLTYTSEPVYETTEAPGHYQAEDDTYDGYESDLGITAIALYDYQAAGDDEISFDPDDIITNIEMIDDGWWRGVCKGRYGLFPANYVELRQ
UniProt Q8N122: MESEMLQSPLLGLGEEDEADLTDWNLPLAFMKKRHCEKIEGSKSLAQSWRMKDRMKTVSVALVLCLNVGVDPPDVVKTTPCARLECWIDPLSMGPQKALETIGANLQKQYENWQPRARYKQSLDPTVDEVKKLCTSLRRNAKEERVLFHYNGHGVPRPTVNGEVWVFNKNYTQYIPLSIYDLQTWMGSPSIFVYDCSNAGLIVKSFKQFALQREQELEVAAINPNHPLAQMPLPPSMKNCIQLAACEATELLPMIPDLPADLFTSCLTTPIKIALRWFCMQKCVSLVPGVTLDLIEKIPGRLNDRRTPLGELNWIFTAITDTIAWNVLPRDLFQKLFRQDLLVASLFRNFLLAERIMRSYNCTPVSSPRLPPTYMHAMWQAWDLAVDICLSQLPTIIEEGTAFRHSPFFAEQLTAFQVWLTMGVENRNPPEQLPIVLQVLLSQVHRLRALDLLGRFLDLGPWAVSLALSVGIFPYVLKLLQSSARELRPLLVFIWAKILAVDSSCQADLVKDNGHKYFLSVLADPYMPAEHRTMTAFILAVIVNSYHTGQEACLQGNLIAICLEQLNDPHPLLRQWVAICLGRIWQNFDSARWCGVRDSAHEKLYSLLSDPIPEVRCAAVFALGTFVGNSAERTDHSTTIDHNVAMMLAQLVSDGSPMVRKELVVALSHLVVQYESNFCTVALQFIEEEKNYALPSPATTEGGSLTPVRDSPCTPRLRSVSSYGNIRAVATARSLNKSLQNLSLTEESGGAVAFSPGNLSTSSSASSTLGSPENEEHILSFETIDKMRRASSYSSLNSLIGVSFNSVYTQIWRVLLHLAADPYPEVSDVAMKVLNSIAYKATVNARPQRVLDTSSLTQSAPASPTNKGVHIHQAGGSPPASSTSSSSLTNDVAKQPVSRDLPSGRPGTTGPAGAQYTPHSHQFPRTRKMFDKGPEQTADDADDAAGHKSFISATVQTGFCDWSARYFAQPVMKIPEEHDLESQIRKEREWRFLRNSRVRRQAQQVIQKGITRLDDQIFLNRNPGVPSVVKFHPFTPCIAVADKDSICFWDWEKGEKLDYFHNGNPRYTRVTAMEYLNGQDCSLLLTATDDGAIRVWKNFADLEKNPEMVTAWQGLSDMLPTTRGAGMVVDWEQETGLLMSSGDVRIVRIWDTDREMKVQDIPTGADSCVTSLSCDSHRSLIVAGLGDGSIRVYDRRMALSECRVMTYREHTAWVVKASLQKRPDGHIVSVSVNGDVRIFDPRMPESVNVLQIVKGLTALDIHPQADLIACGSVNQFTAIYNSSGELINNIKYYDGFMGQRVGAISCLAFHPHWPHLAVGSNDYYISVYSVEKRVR

Experiments:
Experiment in all cases: co-IP; Neuro2A cells co-transfected with the tagged constructs (3 µg DNA each), lysed after 48 h in RIPA buffer (50 mM Tris/HCl pH 8, 100 mM NaCl, 1 mM EDTA, 0.1% SDS, 1% Nonidet P-40, 0.5% sodium deoxycholate); lysate incubated overnight at 4 °C with antibodies (Flag, GFP or c-myc) bound to protein G-Sepharose, washed with RIPA; western blot; bound protein normalised to total protein and to the immunoprecipitated bait
[1] = molecular target: T1, Flag-DLGAP4 (wild type human Disks large-associated protein 4) (human) (UniProt Q9Y2H0)
T1 sequence: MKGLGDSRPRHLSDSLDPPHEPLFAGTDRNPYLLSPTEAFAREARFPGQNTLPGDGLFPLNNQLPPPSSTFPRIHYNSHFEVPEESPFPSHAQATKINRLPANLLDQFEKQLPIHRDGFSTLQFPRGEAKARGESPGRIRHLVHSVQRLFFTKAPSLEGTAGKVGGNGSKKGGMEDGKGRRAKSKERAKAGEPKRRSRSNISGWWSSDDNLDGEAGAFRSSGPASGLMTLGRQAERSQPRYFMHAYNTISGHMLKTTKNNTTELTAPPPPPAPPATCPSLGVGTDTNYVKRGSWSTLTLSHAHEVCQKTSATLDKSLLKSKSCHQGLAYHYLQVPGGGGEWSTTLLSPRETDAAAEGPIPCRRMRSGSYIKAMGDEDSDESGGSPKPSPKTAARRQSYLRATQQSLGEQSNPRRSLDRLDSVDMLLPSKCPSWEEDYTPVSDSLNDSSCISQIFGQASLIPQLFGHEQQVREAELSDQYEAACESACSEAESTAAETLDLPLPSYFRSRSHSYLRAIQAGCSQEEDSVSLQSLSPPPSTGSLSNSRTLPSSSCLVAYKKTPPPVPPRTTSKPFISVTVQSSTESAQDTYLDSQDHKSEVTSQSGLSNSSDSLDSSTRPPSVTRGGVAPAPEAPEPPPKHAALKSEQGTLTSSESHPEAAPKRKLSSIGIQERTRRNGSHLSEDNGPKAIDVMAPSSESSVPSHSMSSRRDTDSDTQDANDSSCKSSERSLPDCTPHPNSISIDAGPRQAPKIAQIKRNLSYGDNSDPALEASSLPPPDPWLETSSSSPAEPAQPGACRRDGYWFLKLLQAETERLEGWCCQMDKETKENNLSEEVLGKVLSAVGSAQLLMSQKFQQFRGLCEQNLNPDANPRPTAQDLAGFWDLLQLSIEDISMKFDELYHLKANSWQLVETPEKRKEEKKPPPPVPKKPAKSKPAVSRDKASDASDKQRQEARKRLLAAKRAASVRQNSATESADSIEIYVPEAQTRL

[2] = molecular target: T2, GFP-DLGAP4 (wild type human Disks large-associated protein 4) (human) (UniProt Q9Y2H0)
T2 sequence: T1 sequence

[3] = molecular target: T1, Flag-DLGAP4 (wild type human Disks large-associated protein 4) (human); remark: listed apart in the source
[4] = molecular target: Flag-cortactin (mouse, pcDNA3-Flag-cortactin) (mouse) (UniProt Q60598)

For “HA-Raptor (human, HA-CMV-Raptor) (from UniProt Q8N122 1-1335)”, the binding [1] was “binds”.

“Flag-cortactin (mouse, pcDNA3-Flag-cortactin) (from UniProt Q60598 1-546)” was tested, and the binding [2] was “binds”.

B1: GFP-GKAP (mouse Dlgap1, pEGFP-C1-GKAP) (protein, UniProt Q9D415 1-992)
chain: MKGLSGSRSHHHGITCEAACDSLSHHSDHKPYLLSPVDHHPADHPYYTQRNSFQAECVGPFSDPLASSTFPRRHYTSQQELKDESALVPRTLATKANRLPTNLLDQFERQLPLSRDGYHTLQYKRTAVEHRSDSPGRIRHLVHSVQKLFTKSHSLEGPSKGSVNGGKASPDESQTLRYGKRSKSKERRSESKARSNASNASPTSPSWWSSDDNLDGDMCLYHTPSGVMTMGRCPDRSASQYFMEAYNTISEQAVKASRSNNDIKCSTCANLPVTLDAPLLKKSAWSSTLTVSRAREVYQKASVNMDQAMVKSEACQQERSCQYLQVPQDEWSGYTPRGKDDEIPCRRMRSGSYIKAMGDEDSGDSDTSPKPSPKVAARRESYLKATQPSLTELTTLKISNEHSPKLQIRSHSYLRAVSEVSINRSLDSLDPAGLLTSPKFRSRNESYMRAMSTISQVSEMEVNGQFESVCESVFSELESQAVEALDLPLPGCFRMRSHSYVRAIEKGCSQDDECVSLRSSSPPRTTTTVRTIQSSTGVIKLSSAVEVSSCITTYKKTPPPVPPRTTTKPFISITAQSSTESAQDAYMDGQGQRGDMISQSGLSNSTESLDSMKALTAAIEAANAQIHGPASQHMGSNAAAVTTTTTIATVTTEDRKKDFKKNRCLSIGIQVDDAEEPEKMAESKTSNKFQSVGVQVEEEKCFRRFTRSNSVTTAVQADLDFHDNLENSLESIEDNSCPGPMARQFSRDASTSTVSIQGSGNHYHACAADDDFDTDFDPSILPPPDPWIDSITEDPLEAVQRSVCHRDGHWFLKLLQAERDRMEGWCKLMEREERENNLPEDILGKIRTAVGSAQLLMAQKFYQFRELCEENLNPNAHPRPTSQDLAGFWDMLQLSIENISMKFDELHQLKANNWKQMDPLDKKERRAPPPVPKKPAKGPAPLIRERSLESSQRQEARKRLMAAKRAASVRQNSATESAESIEIYIPEAQTRL
For B1, the binding [3] was “binds”.

B2: GFP-LGN (mouse, pEGFP-C1-LGN; coded by the GPSM2 gene) (protein, UniProt Q8VDU0 1-679)
chain: MEGNLISMREDHSFHVRYRMEASCLELALEGERLCKSGDCRAGVSFFEAAVQVGTEDLKTLSAIYSQLGNAYFYLHDYAKALEYHHHDLTLARTIGDQLGEAKASGNLGNTLKVLGNFDEAIVCCQRHLDISRELNDKVGEARALYNLGNVYHAKGKSFGCPGPQDTGEFPEDVRNALQAAVDLYEENLSLVTALGDRAAQGRAFGNLGNTHYLLGNFRDAVIAHEQRLLIAKEFGDKAAERRAYSNLGNAYIFLGEFETASEYYKKTLLLARQLKDRAVEAQSCYSLGNTYTLLQDYEKAIDYHLKHLAIAQELKDRIGEGRACWSLGNAYTALGNHDQAMHFAEKHLEISREVGDKSGELTARLNLSDLQMVLGLSYSTNNSMMSENIEIDGSLHGAGAKLGRRHSMENLELMKLTPEKVPNWNSEILAKQKPLIAKPSAKLLFVNRLKGKKYKSGSACTKVLQDASNSVDHRAPRSQKKISSDTIGDEGFFDLLRRFQSNRMDDQRCHLQGNCRTTSTAAASATPKLMKAPSVSVVSPNTDEFLDLLASSQSRRLDDQRASFSNLPGLRLTKGNSPSVLERLMTNDKKEPDEDFFDILVKCQGSRLDDQRCAPPSAATKGPTVPDEDFFSLILRSQAKRMDEQRVLLQRDPNRDSEFGLKELLQNNALLEFKHSGK
B2 was tested, and the binding [3] was “binds”.

B3: GFP-DLGAP4 (wild type human Disks large-associated protein 4) (protein, UniProt Q9Y2H0-1 1-989)
chain: T1 sequence
For B3, the binding [4] was “binds”.
